Measured values as given in paper PMC7192513.
Results are given in words; binding and its absence hold for the method and conditions named. Binding seen in cells or lysates may run through a third protein. Here binding means that the protein was enriched with, or labelled near, the bait; the list need not be complete.

T1: Kelch protein K13 (P. falciparum (endogenous in Cam3.II and CamWT parasites)) (UniProt Q8IDQ2)
T1 sequence: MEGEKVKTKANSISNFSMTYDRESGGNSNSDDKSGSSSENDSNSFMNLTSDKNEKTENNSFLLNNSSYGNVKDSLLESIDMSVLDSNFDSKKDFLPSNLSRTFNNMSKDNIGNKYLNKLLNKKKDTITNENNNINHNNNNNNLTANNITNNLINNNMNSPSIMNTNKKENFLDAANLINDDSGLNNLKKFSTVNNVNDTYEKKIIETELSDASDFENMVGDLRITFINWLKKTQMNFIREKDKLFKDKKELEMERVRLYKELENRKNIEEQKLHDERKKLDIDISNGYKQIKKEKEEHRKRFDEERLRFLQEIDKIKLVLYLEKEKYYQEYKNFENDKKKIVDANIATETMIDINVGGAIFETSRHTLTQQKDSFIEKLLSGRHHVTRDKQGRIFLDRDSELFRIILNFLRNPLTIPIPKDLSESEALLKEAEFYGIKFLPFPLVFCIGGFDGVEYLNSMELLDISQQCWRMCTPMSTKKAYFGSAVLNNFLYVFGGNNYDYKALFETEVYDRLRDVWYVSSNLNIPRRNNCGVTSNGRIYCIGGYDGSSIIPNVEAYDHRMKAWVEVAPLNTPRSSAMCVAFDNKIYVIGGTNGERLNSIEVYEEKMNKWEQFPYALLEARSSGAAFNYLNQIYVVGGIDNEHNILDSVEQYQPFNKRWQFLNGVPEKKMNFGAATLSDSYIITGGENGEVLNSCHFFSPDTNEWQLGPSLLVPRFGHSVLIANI


Target: T1, Kelch protein K13 (P. falciparum (endogenous in Cam3.II and CamWT parasites))
Assay: affinity purification with mass spectrometry; co-IP with a mix of the K13 mAbs E3 and D9 (2.5 ug each) coupled to Pierce Direct IP columns; 500 ug parasite lysate in Pierce IP Lysis Buffer; cultures enriched in 0-12 hpi rings of Cam3.II (K13 WT, C580Y, R539T) and CamWT (WT, C580Y); eluates by LC-MS/MS; 6 experiments, 13 test samples, 10 negative controls

| Binder | binding |
| --- | --- |
| SEY1 (protein, UniProt Q8ILT5 1-937) MEKGVEKTQIIDYDGNVIEDLKEWMIDNKLNDLGFSYNVIAVLGSQSSGKSTLLNNLFKTSFDVMNTKQGHSQTTKGLWLSYDKFDDETNNSSSFFKLKKKNKPTLILDVEGTDSKERGDNRLTFEHRSALFCLALADCVIVNLWYHSLGNFTASNYGLLKTVMEVNLELFQQEKNSPKTILLFTVRDWFEEFAPIEVVRNKILDEYINKIWKEMKKPKEAEKLNINNFFIIEVVGLSHGIIKKEDFLKDVNNLRDKWINNLRPSKYSRNIPSDGFAQYCNNIWNTIVKQSQLDIPSQKEMLSTFRCQEIKNNVINNINKEIKEKSIESHNKVIENFKEWAEKNIIQKCLDDYFKDASRYKENICLRTSQELLDYLFTQLQAIVDNNLQYIQRTLCTKFFNELSNMYKICTIEKNTFSFSRDSNLKTVKDNNKNTSHEDIKRDLLNNNQDKCVHLWSNFLYNADKLEYFTFCNFYENYEKSNIEIKTNMKNDDNLKNDDNLKNDAHNNITTHQFNYKPTLSVLSTSIYKDSNRIRNIQCGILLNKTRQTIKNSFKNMDTYLLTTKNTEEYWNNTVQLVLKLQDNINTHLTKCFINLKGTNHNNLNIYNDDMMYNNDDMVFNNNDDDDNNNNNNNNNYYYYNKNDDANLSKDENYNNKFSFSLTNEKGIFQNINNNNEGSDEICYTNALKKIDLIKNKQVYKSTINEDINNKLQNKKYIHELKNYYLDEIMDVLKNKLDEISENLATIIIQRFESVFNYDEYEQPRQWRDISMAELKKIFLKSKNYAFLIIDILQKNIKVELIDDYLPNNFIKDEIIEKGKIKAKRRIQEICRDAQYIQETGSKMSLKNVPVVFWIILLLFGWNEILFFIRMFFKLNVILPLFFAAAFIVSTFVYNGNTQALSYINKIIFYMAKNSYNFFKHIQAISNPPPKNVQKQE | binds |
| Pyruvate kinase (protein, UniProt C6KTA4 1-511) MSSFKYKNSAAGASMQSAANITLRQILEPNNVNLRSKKTHIVCTLGPACKSVETLVKLIDAGMDICRFNFSHGSHEDHKEMFNNVLKAQELRPNCLLGMLLDTKGPEIRTGFLKNKEVHLKEGSKLKLVTDYEFLGDETCIACSYKKLPQSVKPGNIILIADGSVSCKVLETHEDHVITEVLNSAVIGERKNMNLPNVKVDLPIISEKDKNDILNFAIPMGCNFIAASFIQSADDVRLIRNLLGPRGRHIKIIPKIENIEGIIHFDKILAESDGIMIARGDLGMEISPEKVFLAQKLMISKCNLQGKPIITATQMLESMTKNPRPTRAEVTDVANAVLDGTDCVMLSGETAGGKFPVEAVTIMSKICLEAEACIDYKLLYQSLVNAIETPISVQEAVARSAVETAESIQASLIIALTETGYTARLIAKYKPSCTILALSASDSTVKCLNVHRGVTCIKVGSFQGTDIVIRNAIEIAKQRNMAKVGDSVIAIHGIKEEVSGGTNLMKVVQIE | binds |
| Phosphoglycerate mutase 1, putative (protein, UniProt Q8IIG6 1-250) MTTYTLVLLRHGESTWNKENKFTGWTDVPLSEKGEEEAIAAGKYLKEKNFKFDVVYTSVLKRAICTAWNVLKTADLLHVPVVKTWRLNERHYGSLQGLNKSETAKKYGEEQVKIWRRSYDIPPPKLDKEDNRWPGHNVVYKNVPKDALPFTECLKDTVERVLPFWFDHIAPDILANKKVMVAAHGNSLRGLVKHLDNLSEADVLELNIPTGVPLVYELDENLKPIKHYYLLDSEELKKKMDEVANQGKAK | binds |
